Test results from patent publication US20070081951A1, “Prevention of dental plaque and dental calculus in animals” (priority 2005, published 2007).
Some results were stated once for a whole list of compounds, not compound by compound.

System: dental plaque in cats
Assay: Example 3: antimicrobial rinses in cats, 4-week dental plaque formation
Format: in vivo
Conditions: 4-week test periods, clinical plaque grading

[H]/N=C(\N/C(=N/[H])NCCCCCCNC(=N)NC(=N)Nc1ccc(Cl)cc1)Nc1ccc(Cl)cc1 [CHX alone, chlorhexidine gluconate]
Reduction in the formation of dental plaque: 25-40%
